This note sets out measurements from PubChem BioAssay AID493014 (National Center for Advancing Translational Sciences (NCATS), 2011).

A short description of the assay: qHTS Assay to Find Inhibitors of Chronic Active B-Cell Receptor Signaling. Particulars: ABC-DLBCL IkBa-CBG/CBR reporter, luminescence ratio (green luciferase fused to IkBa over red control in TMD8 lymphoma cells), 4 h. In a few lines: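 Cell line TMD8 (human ABC DLBCL), stably expressing tet-inducible CBG68-IkBa fusion and CBR; IMDM/0.5% FBS; cpd up to 46 uM; dox induction, 4 h, 37C/5% CO2; dual luminescence; green/red ratio; MG132 control.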

The mark [1] stands for this setting: measured here: CBR red luminescence, cell number.
[2] abbreviates: measured here: IkBa-CBG green luminescence.

The list shows a part of the results. Shown are side measurements of this screen, not its main read-out; they come without a call. Most of these compounds were active or inconclusive in the main read-out, so they are no random draw. Potencies come from curve fits of mixed quality, noted in brackets.

The AC50 is the midpoint of the concentration-response curve, whichever way the signal moves.

Turning to `CNS(=O)(=O)c1ccc(NC(=O)c2cncc(Br)c2)cc1`, the concentration at half-maximal activity (AC50) under setting [1] is 0.112 µM [rising, full curve, poor fit].

As to `COc1cccc(-n2cc(CNCc3cn(C)nc3-c3ccccc3F)cn2)c1`, the AC50 under setting [1] is 1.78 µM [rising, partial curve, poor fit] and the AC50 under setting [2] was 11.2 µM [rising, single point].

For `COCCn1c(=NC(=O)CSCC(=O)Nc2cc(C)on2)sc2cc(C(=O)OC)ccc21`, the half-maximal activity concentration (AC50) under setting [1] was 0.92 µM [rising, full curve, poor fit].

For the compound `CC(=O)c1cccc(NC(=O)c2cc(C(C)C)on2)c1`, the half-maximal activity concentration (AC50) under setting [1] is 22.4 µM [falling, single point].

In the case of `COc1cccc(N2CCN(CC(=O)Nc3nnc(-c4ccccc4)s3)CC2)c1`, under setting [1], the half-maximal activity concentration (AC50) is 13 µM [rising, partial curve, poor fit].

Regarding `CC(C)CNC(=O)c1cccc(NC(=O)C2CCCO2)c1` (stereo unspecified), the AC50 under setting [1] was 18.4 µM [rising, partial curve, poor fit].

Take `CCn1c(SC(C)C(=O)NCC2CCCO2)nc2ccccc21` (stereo unspecified): the AC50 under setting [1] was 13 µM [rising, partial curve].

For `CCN=C1NN=C(c2ccc(C)cc2)CS1`, the AC50 under setting [1] is 0.631 µM [rising, partial curve, poor fit].

With `COc1ccccc1-n1c(CNC(=O)c2ccco2)n[nH]c1=S`, under setting [1], the AC50 was 7.08 µM [falling, partial curve, poor fit].

Consider `COc1ccc(-c2nc(SCC(=O)NCc3ccco3)c(-c3ccccc3)[nH]2)cc1OC`, for which the AC50 under setting [1] was 29.1 µM [falling, partial curve, poor fit].

For `COc1ccc(CN(CCCN2CCOCC2)C(=O)Nc2ccccc2)cc1OC`, the half-maximal activity concentration (AC50) under setting [1] is 35.5 µM [rising, single point].

With `N/C(=N\OC(=O)c1ccccc1Br)c1ccc([N+](=O)[O-])cc1`, the half-maximal activity concentration (AC50) under setting [1] is 12.6 µM [rising, partial curve, poor fit].

For `C[N+]1(CC2COC3(CCCCC3)O2)CCCCC1` (stereo unspecified), the AC50 under setting [1] was 15.8 µM [falling, partial curve, poor fit].

For `CCc1ccc(Nc2cc(C(=O)NCCCN3CCOCC3)c3ccccc3n2)cc1`, the AC50 under setting [2] was 1.03 µM [rising, partial curve, poor fit].

As to `Cc1occc1C(=O)Nc1ccc2ccccc2c1`, the AC50 under setting [1] is 22.4 µM [falling, partial curve].

In the case of `Cc1ccc(S(=O)(=O)N2CCOCC2)cc1C(=O)Nc1ccc2c(c1)OCCO2`, under setting [1], the AC50 was 23.1 µM [falling, partial curve, poor fit].

For the compound `CCOc1ccc(OCC)c(NC(=O)C2CCCN(S(=O)(=O)c3cnc[nH]3)C2)c1` (stereo unspecified), the half-maximal activity concentration (AC50) under setting [1] was 2.59 µM [falling, partial curve].

As to `CCOc1ccc(NC(=O)Nc2nc3ccc(S(C)(=O)=O)cc3s2)cc1`, the half-maximal activity concentration (AC50) under setting [1] is 22.4 µM [rising, single point].

In the case of `COc1cc(NC(=O)c2onc(C)c2Cl)c(OC)cc1Cl`, under setting [1], the concentration at half-maximal activity (AC50) was 14.6 µM [rising, single point].

As for `Cc1c(Cl)cccc1NC(=O)c1cc(-c2ccccc2O)n[nH]1`, the concentration at half-maximal activity (AC50) under setting [1] is 5.17 µM [falling, partial curve, poor fit].

Consider `CC1CCCCC1NC(=O)C1CCC(CNS(=O)(=O)c2ccc(F)cc2)CC1` (stereo unspecified), for which the half-maximal activity concentration (AC50) under setting [1] was 35.5 µM [falling, single point].

Consider `CCOC(=O)c1c(NC(=O)CSc2nnc(CN3CCOCC3)n2C)sc2c1CCCC2`, for which, under setting [1], the half-maximal activity concentration (AC50) was 14.6 µM [falling, partial curve].

As for `COc1ccccc1NC(=O)Nc1ccc(F)c(F)c1`, the concentration at half-maximal activity (AC50) under setting [1] is 14.1 µM [falling, single point].

As to `Cc1ccc(C(=O)N2C(=O)C(c3ccccc3)Oc3ccccc32)cc1` (stereo unspecified), under setting [1], the AC50 is 35.5 µM [rising, single point].

Regarding `Cc1cc2[nH]c3ccccc3c2c(C)n1`, the concentration at half-maximal activity (AC50) under setting [1] is 18.4 µM [falling, single point].

As for `CC(C)c1ccc(OCC(=O)N2CCc3ccccc3C2)cc1`, the concentration at half-maximal activity (AC50) under setting [1] is 17.8 µM [rising, single point].

For the compound `CCc1nnc(NC(=O)CSc2ncc(-c3ccccc3)n2CC)s1`, the concentration at half-maximal activity (AC50) under setting [1] was 35.5 µM [falling, single point].

As for `COC(=O)c1sc2ncccc2c1OCc1ccccc1Cl`, the AC50 under setting [1] was 7.94 µM [rising, partial curve, poor fit].

On to `O=C1C(=O)N(CC2CCCO2)C(c2ccco2)/C1=C(/O)c1ccc(F)cc1` (stereo unspecified), for which the AC50 under setting [1] is 7.08 µM [rising, partial curve, poor fit].

Consider `N#Cc1ccc(/C=N/NC(=O)c2ccccc2F)cc1`, for which the AC50 under setting [1] was 7.31 µM [falling, partial curve].

With `O=C(COC(=O)c1ccc(Cl)nc1)NCCc1ccccc1`, the AC50 under setting [1] was 32.6 µM [rising, single point].

Turning to `CN1C(=O)c2cccc3c(S(=O)(=O)N(C)C)ccc1c23`, the half-maximal activity concentration (AC50) reads like this: under setting [1], 14.1 µM [rising, partial curve, poor fit]; under setting [2], 28.2 µM [falling, single point].

For the compound `COc1ccc2cc(C(c3nnnn3CCc3ccccc3)N3CCCC(C)C3)c(=O)[nH]c2c1` (stereo unspecified), the AC50 under setting [1] was 12.6 µM [falling, single point].

Turning to `C/C(=C\c1ccccc1)C(=O)Nc1cc(C)on1`, the AC50 under setting [1] is 1.16 µM [rising, full curve, poor fit].

For the compound `O=C(CCCOc1ccc(Cl)cc1Cl)Nc1ncccn1`, the concentration at half-maximal activity (AC50) under setting [1] was 3.55 µM [rising, partial curve, poor fit].

With `O=C(Nc1ccccc1N1CCN(C(=O)c2ccc(Cl)cc2)CC1)c1ccc([N+](=O)[O-])o1`, the AC50 under setting [1] is 8.91 µM [rising, partial curve, poor fit].

Take `CC(=O)N(CCC(c1ccco1)C(C)C)Cc1ccc(Cl)cc1` (stereo unspecified): the AC50 under setting [1] was 35.5 µM [falling, single point].

`Cn1c(=O)c2ncn(CC(=O)Nc3cccc(-c4nc5ccccc5s4)c3)c2n(C)c1=O`: the AC50 under setting [1] is 0.224 µM [falling, full curve, poor fit].

With `Cc1cc(C(=O)CSc2nnc(-c3cccs3)n2Cc2ccccc2)c(C)n1C`, under setting [1], the AC50 is 35.5 µM [falling, partial curve, poor fit].

Turning to `O=C1NC(=O)/C(=C\c2ccc(OCc3cccc(C(=O)O)c3)c(Cl)c2)N1`, the half-maximal activity concentration (AC50) under setting [1] is 11.2 µM [falling, partial curve].

Turning to `O=C(O)Cc1c[nH]c2cccc(O)c12`, under setting [1], the concentration at half-maximal activity (AC50) was 10 µM [falling, partial curve, poor fit].

For `COc1cc(/C=N/NC(=O)c2cccc(NC(=O)c3ccccc3Cl)c2)ccc1O`, the AC50 under setting [1] is 5.01 µM [falling, partial curve, poor fit].

For `COC(=O)Nc1ccc(S(=O)(=O)NC2CCS(=O)(=O)C2)cc1` (stereo unspecified), the AC50 under setting [1] is 2.82 µM [rising, single point].

Consider `O=C(O)c1cnn(-c2nc(-c3ccc(Cl)cc3)cs2)c1C(F)(F)F`, for which, under setting [1], the AC50 is 35.5 µM [falling, single point].

As to `COCC(=O)Nc1sc2c(c1C(=O)OC)CCCC2`, the AC50 under setting [1] was 16.4 µM [rising, partial curve, poor fit].

Regarding `COC(=O)c1nnn(-c2cc(Cl)cc(Cl)c2)c1C(=O)OC`, the half-maximal activity concentration (AC50) under setting [1] was 2.82 µM [rising, full curve, poor fit].

Consider `CN(/N=C/c1ccccc1Cl)c1ncc(Cl)cc1C(F)(F)F`, for which, under setting [1], the concentration at half-maximal activity (AC50) was 3.16 µM [rising, single point].

For the compound `C[C@]12c3[nH]c4cc(-c5ccco5)ccc4c3CCN1C(=O)[C@@H](CC(=O)NCCN1CCOCC1)C[C@@H]2C(=O)N1CCCCC1`, under setting [1], the AC50 was 29.1 µM [falling, single point].

Turning to `CCOC(=O)CN(C(=O)CSc1nnc(Cc2ccccc2)n1-c1ccc(C)cc1)c1ccccc1`, the half-maximal activity concentration (AC50) under setting [2] is 16.4 µM [rising, partial curve, poor fit].

In the case of `O=C(CSc1ccc(-c2ccccc2)nn1)N1CCCc2ccccc21`, the concentration at half-maximal activity (AC50) under setting [1] was 4.61 µM [falling, partial curve, poor fit].

On to `Cc1ccc(/C=N/NC(=O)c2nn(C)cc2Cl)cc1`, for which, under setting [1], the AC50 is 4.11 µM [falling, partial curve].

For the compound `CS(=O)(=O)N(CC(=O)N1CCN(c2ccc(F)cc2)CC1)c1cccc(Cl)c1`, the concentration at half-maximal activity (AC50) under setting [1] is 0.116 µM [falling, full curve, poor fit].

On to `Cc1noc(C)c1S(=O)(=O)Nc1ccc(C(=O)N2CCN(c3cccc(Cl)c3)CC2)cc1`, for which the AC50 under setting [1] is 8.2 µM [falling, partial curve, poor fit].

In the case of `CCN(CC)C(=O)CSC(Nc1ccc(F)cc1)=C(C#N)C#N`, the half-maximal activity concentration (AC50) is 10 µM [falling, partial curve] under setting [1] and 35.5 µM [rising, partial curve, poor fit] under setting [2].

`CC(C)COP(=O)(c1ccc(N(C)C)cc1)C(O)c1ccccn1` (stereo unspecified): under setting [1], the AC50 is 2.82 µM [rising, full curve, poor fit].

For the compound `CCNc1nc(N2CCCCC2)nc(-n2nnc(C(=O)OCC)c2C)n1`, under setting [1], the AC50 is 6.51 µM [rising, single point].

As for `CN1CCc2c(sc3c2C(=O)NC(c2ccc(-c4ccc(Cl)cc4)o2)N3)C1` (stereo unspecified), under setting [1], the concentration at half-maximal activity (AC50) was 1.41 µM [falling, full curve].

In the case of `CC(=O)Nc1ccc(NC(=O)C(F)(F)F)cc1`, the AC50 under setting [1] was 16.4 µM [rising, partial curve, poor fit].

For `Cc1ccc(C(=O)Nc2nccs2)cc1`, under setting [1], the concentration at half-maximal activity (AC50) is 7.94 µM [falling, partial curve].

`Oc1ccc(-c2cccc(-c3ccc(O)cc3)n2)cc1`: the half-maximal activity concentration (AC50) under setting [2] was 11.2 µM [falling, partial curve, poor fit].

For the compound `O=C(Nc1ccccc1)C(Cl)C(=O)c1ccccc1` (stereo unspecified), the AC50 reads like this: under setting [1], 12.6 µM [falling, partial curve, poor fit]; under setting [2], 17.8 µM [falling, partial curve, poor fit].

Consider `CC(Oc1ccc2ccccc2c1)C(=O)NNC(=S)NC(=O)c1ccco1` (stereo unspecified), for which, under setting [1], the concentration at half-maximal activity (AC50) is 29.1 µM [rising, single point].
